Laboratory results reported in PubChem BioAssay AID1347426 (Functional Genomics Laboratory (NCATS/FGL), 2020).
The campaign covered roughly 31,000 sequences. About 1,400 (4.5%) were called active.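 The calls were made as follows: active = median seed-adjusted z-score above 1 or below -1; inactive = the rest.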 This is one part of the list.

Assay: Novel Modifiers of Survival Motor Neuron (SMN) Protein: Gene Identification via Genome-wide siRNA Screen;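 also: luminescence tracks full-length SMN protein made from the SMN2 reporter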
Details: HEK293T SMN2-luciferase reporter, siRNA knockdown, 72 h; actives lie on both sides
In short: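 Luciferase signal, proportional to full-length SMN made from an SMN2 cDNA reporter in stable HEK293T cells, was read 72 h after siRNA reverse transfection. Values were expressed as MAD scores after non-targeting-control normalization and log10 conversion; seed analysis flagged off-targets.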
In the case of GUCCUUAUCUUUGCAAAUATT against ARL5B, the median seed-adjusted z-score is reported as inactive: -0.506. With GCAUAGGUGUUGUUGAUCATT against ARHGAP29 the median seed-adjusted z-score was inactive: -0.0483. In the case of GCAAGGACUUUGACUCCUUTT against CLDN22, the median seed-adjusted z-score is reported as inactive: 0. For GGUUCAACCUGCAUAGUGATT against SLC9A3R2, the median seed-adjusted z-score was inactive: 0.165. For GUGUCAAAACGUACUCAAATT against DGKG, the median seed-adjusted z-score was inactive: 0.227. With CAAAGUAAAUGAGGCCUUUTT against MYOD1 the median seed-adjusted z-score was inactive: 0.309. With CAACGAUAGCUUAUCCCAATT against LPGAT1 the median seed-adjusted z-score was inactive: 0.625. In the case of CAGAGGUGGUUACACGGAATT against PAK2, the median seed-adjusted z-score is reported as inactive: 0.122. In the case of GGAAAUAACAGCUCUGAAATT against RPS6KA5, the median seed-adjusted z-score is reported as inactive: -0.0588. In the case of CCACGGAUGUUCAAUAUCATT against RASA1, the median seed-adjusted z-score is reported as inactive: -0.398. With ACAUGUCUUUCCAUCGCAATT against CD5 the median seed-adjusted z-score was inactive: 0.0416. With GCAUCGCCAUGAUGUGUAATT against S100A4 the median seed-adjusted z-score was inactive: 0.567. In the case of GACUUUCUAUUAUGCUGUUTT against TF, the median seed-adjusted z-score is reported as inactive: 0.192. For GUAUCAAUCUUUGCGGAUATT against KL, the median seed-adjusted z-score was inactive: -0.267. For CCUUCAUCGAUAACUCUGATT against UBN1, the median seed-adjusted z-score was inactive: 0.0782. For CGUGUGAAACGGCCCAUGATT against SOX3, the median seed-adjusted z-score was inactive: 0.32. With GACACGUUUUUGGAGGAUATT against SERPINA2 the median seed-adjusted z-score was inactive: 0.285. For AACCGGUCCUCAAAUCUUATT against ZNF92, the median seed-adjusted z-score was inactive: -0.375. With GCACUAACCUCUAUCGUCATT against ZNF530 the median seed-adjusted z-score was inactive: 0.0381. For GCCCGUUUGCUGUAUAUGATT against RHOJ, the median seed-adjusted z-score was inactive: -0.304. With GAGAUUUAAUAUUGUCGAATT against CNKSR2 the median seed-adjusted z-score was inactive: -0.0536. In the case of AGGAAGCUGUGCGAAAUGATT against RARG, the median seed-adjusted z-score is reported as inactive: -0.0492. For GCCUAACAGGAGAUCAUAATT against XDH, the median seed-adjusted z-score was inactive: 0.806. In the case of UCCCAGCACUUAUAGCCUATT against ANKRA2, the median seed-adjusted z-score is reported as active: 1.26. In the case of CCUCAAAUCGGACACUCAATT against ZNF524, the median seed-adjusted z-score is reported as inactive: 0.00173. In the case of CCGCGAGUCUGUCCACUAUTT against LPAR2, the median seed-adjusted z-score is reported as inactive: 0.171. For UCCUCUAAAAAUUACAGUATT against TUBB2A, the median seed-adjusted z-score was active: 1.03. For GGCAUCCUCUCAUUCGAGATT against ADD3, the median seed-adjusted z-score was inactive: 0.0741. For GGUGAUGGUUCAUUCGCAUTT against ZMIZ2, the median seed-adjusted z-score was inactive: -0.27. For GACUGAAUGAUAUGAAAGATT against RHOQ, the median seed-adjusted z-score was inactive: -0.328. For GCAGCUCACUUAAGGCCUATT against VPS18, the median seed-adjusted z-score was inactive: 0.181. For UCUUUAUCUGGUUUGCUUATT against TAAR5, the median seed-adjusted z-score was inactive: 0.573. With CCUCAUCAACUCUGACAUATT against LMO2 the median seed-adjusted z-score was inactive: 0. In the case of CCAAGAUAUUUAACGACAATT against MTR, the median seed-adjusted z-score is reported as inactive: -0.0696. For CCGAGUAUACUACAAGGAATT against RAB32, the median seed-adjusted z-score was inactive: -0.112. In the case of GUUCGGACCUUAUCAGAAATT against LATS2, the median seed-adjusted z-score is reported as inactive: -0.245. With GCUCAAUCCCAAUACCCUUTT against MAP3K13 the median seed-adjusted z-score was inactive: -0.121. In the case of GGAGCUACAGUUUCACCUATT against PCDHGB3, the median seed-adjusted z-score is reported as inactive: 0.275. With GCCUGGUUAUAUAACCGGATT against EP300 the median seed-adjusted z-score was inactive: -0.2. In the case of UAAACAACAGGAGCCUUUUTT against RFNG, the median seed-adjusted z-score is reported as inactive: 0. With CCUGUUUGAUGACAGCGAATT against PPARGC1A the median seed-adjusted z-score was inactive: -0.0953. In the case of CUACCAGCAUGUGAUGUUUTT against CH25H, the median seed-adjusted z-score is reported as inactive: -0.264. For GAAUUGACAAAGUUAGAUATT against SYNM, the median seed-adjusted z-score was inactive: 0.104. With GCAUGAAUGCAACCUGAUUTT against DDX55 the median seed-adjusted z-score was inactive: 0.507. In the case of AGGAGAUGAUGGACGCGCATT against NDUFB7, the median seed-adjusted z-score is reported as inactive: -0.379. In the case of GCAAAACUACGGACACUUATT against HOXD3, the median seed-adjusted z-score is reported as inactive: 0.233. With GACUGUCGUCGACAAUAUUTT against SPO11 the median seed-adjusted z-score was inactive: 0.475. For GCUGCGGCAUGAUCACUAATT against LBXCOR1, the median seed-adjusted z-score was inactive: 0.0938. For CCCUCUCUUUGGACCGCAATT against ATP6V0E1, the median seed-adjusted z-score was inactive: -0.0658. For GGCUUAAGGUCAACCUGCUTT against GPR31, the median seed-adjusted z-score was inactive: -0.0381. For GAGUUUGAGUUCUAAUUCATT against ZNF619, the median seed-adjusted z-score was inactive: -0.536. In the case of CUUGAUUGUUGGAACCAAATT against UBE2N, the median seed-adjusted z-score is reported as inactive: 0.995. In the case of GGAAGGUGAUUAUAAAGAATT against TTC7B, the median seed-adjusted z-score is reported as inactive: 0.0338. With GGAUGUUGUUCGUAGGAGATT against SNTG2 the median seed-adjusted z-score was inactive: 0.603. With GAAUGAGCCUCUUAAAAUATT against CLDN23 the median seed-adjusted z-score was inactive: 0.817. With GGAAUCGUGGAGAAUAUGATT against NUBP2 the median seed-adjusted z-score was inactive: -0.21. With CAAGGACUUUUGUAACCGUTT against PKNOX2 the median seed-adjusted z-score was inactive: 0.0976. In the case of GGCCUUCAGUAAAGGUUGATT against ARNTL, the median seed-adjusted z-score is reported as inactive: 0.0838. In the case of CAAGUACAGUAAUGCCGAUTT against ZFHX3, the median seed-adjusted z-score is reported as inactive: 0.045. In the case of UGCUGACCCUAAUCCCUUATT against ETV2, the median seed-adjusted z-score is reported as inactive: 0. With CGAUUUGAGCAACUUCUAUTT against SDHB the median seed-adjusted z-score was inactive: 0.0872. In the case of GAAGGAGCAGGAUUACCAATT against TMED4, the median seed-adjusted z-score is reported as inactive: -0.895. In the case of CUCCUACUCUGACUCCCAATT against NOS1, the median seed-adjusted z-score is reported as inactive: 0.0195. With CAUGAAGACUAUACCCUGATT against CYP8B1 the median seed-adjusted z-score was inactive: 0. For GCAUGAUCUUGGAUUCUGATT against LIG3, the median seed-adjusted z-score was inactive: -0.0498. For GGAGGUUAAAGUGAAGAUUTT against MORF4L2, the median seed-adjusted z-score was inactive: 0.389. In the case of CGCAAGUACUAUUACAAGUTT against ZNF335, the median seed-adjusted z-score is reported as inactive: -0.305. In the case of GGUCUACGUGAACAACUCUTT against KCNMB4, the median seed-adjusted z-score is reported as inactive: 0. For GGGAUGAAGUAUCAUGUCATT against ZNF512, the median seed-adjusted z-score was inactive: -0.675. With ACCGAUUCCUGAACCCUGATT against PTGIS the median seed-adjusted z-score was inactive: 0. With GGUGAAAGAAGGUCGAGUATT against PPP3CB the median seed-adjusted z-score was inactive: 0.0225. With GGAGCUACUUAAUCGGGAUTT against ANGEL1 the median seed-adjusted z-score was inactive: -0.332. For GGAUGGAGGAAGUUAUUAATT against RLN2, the median seed-adjusted z-score was inactive: 0.877. With CAGGAGCAGUUAGACUUAATT against DNALI1 the median seed-adjusted z-score was inactive: 0.699. In the case of GCUUCGUCAUAAUACUCCATT against STT3A, the median seed-adjusted z-score is reported as inactive: 0. With GGGAAUUACCAGUUACGGATT against TMPRSS12 the median seed-adjusted z-score was inactive: 0.0961. For CGAUGUAUUGUUAAUCGUATT against USP9Y, the median seed-adjusted z-score was inactive: 0.012. For GGACCUAUUCGUCAAAUCATT against SF3B14, the median seed-adjusted z-score was active: -1.26. For GAAACCCGGUUACAAUGGATT against SPAM1, the median seed-adjusted z-score was inactive: 0.518. For GCAUUAACCCUUACCACUATT against SMAD9, the median seed-adjusted z-score was inactive: -0.492. For GCACAAGUUUUGAUUCGGATT against CD86, the median seed-adjusted z-score was inactive: 0. With CCCGUAACCUAAUUCCUAUTT against PRKCG the median seed-adjusted z-score was inactive: 0. In the case of GGUGUGAAGUUCCUCAGAATT against DGKD, the median seed-adjusted z-score is reported as inactive: 0.35. For AGAACAUUCCGGGAAAUCATT against MAPK15, the median seed-adjusted z-score was inactive: 0.0724. With GGGUGGAUGUCAUGCAGCATT against SORBS3 the median seed-adjusted z-score was inactive: 0.106. In the case of CCACGGUGAUAACAGACAUTT against ALDH8A1, the median seed-adjusted z-score is reported as inactive: 0.0628. In the case of GGUGGAACCUAGAGAUGAATT against NCOR1, the median seed-adjusted z-score is reported as inactive: 0.0767. For GGAUAGUCAGCUACAUCGATT against SDR42E1, the median seed-adjusted z-score was inactive: -0.109. With GGUCAGUGACCAAAAGGAATT against NFATC2 the median seed-adjusted z-score was inactive: 0.183. For CACCGAGGGAGAAAUCUAATT against ZNF136, the median seed-adjusted z-score was inactive: 0.229. With UGGAGAGACUUAUCCAAGATT against CKMT1B the median seed-adjusted z-score was inactive: -0.929. For CCGUGACCAAUGUCAAUGATT against CYP27C1, the median seed-adjusted z-score was inactive: 0.0462. With CCUCCCACCUGAAUGAUCATT against ZIK1 the median seed-adjusted z-score was inactive: -0.0627. For CAAUUACAACGGAGUCAAATT against REG1A, the median seed-adjusted z-score was inactive: 0.596. With GCUCUGUGAUACCCAAUAATT against TK2 the median seed-adjusted z-score was inactive: 0. For CGAAGUACAUUGGAACGUATT against LRRC3, the median seed-adjusted z-score was inactive: -0.0448. In the case of GGCACAACAGAGUUAUGAATT against FNBP1L, the median seed-adjusted z-score is reported as inactive: -0.0815. With GGAGUACGCUCAACAAGAUTT against CNP the median seed-adjusted z-score was inactive: -0.116. For CAAACGUGGACUGUCCAAATT against CA4, the median seed-adjusted z-score was inactive: 0.0549. In the case of CUAUAUCUCCAACACUUUUTT against SMARCD3, the median seed-adjusted z-score is reported as inactive: 0.247. For GAAUAACCGUAAACCAGAUTT against MEF2C, the median seed-adjusted z-score was inactive: -0.632. With CAGGGAAAAGUGACAGUGATT against PPP1R14C the median seed-adjusted z-score was inactive: -0.316. For GCCUCGUCACAACAACAGATT against IL2RA, the median seed-adjusted z-score was inactive: 0.587. For AGGAGCACCUGAAGAAAUCTT against PDLIM7, the median seed-adjusted z-score was inactive: 0.548. For AUAAAUUCCUGAUUGCUAATT against CXCL6, the median seed-adjusted z-score was inactive: 0.802. With GGACAAGGAGAACAUAUUUTT against ZNF775 the median seed-adjusted z-score was inactive: 0.00364. In the case of AGGUGUUCAACGACAUGAATT against CFL1, the median seed-adjusted z-score is reported as inactive: 0.685. With GGAAACCUCCAGUUCCGUUTT against UBA2 the median seed-adjusted z-score was inactive: 0.694.
